Source: publication doi:10.1101/717769

Protein sequences, listed by entry. Tags and fused reporters are not part of them.
UniProt O14646: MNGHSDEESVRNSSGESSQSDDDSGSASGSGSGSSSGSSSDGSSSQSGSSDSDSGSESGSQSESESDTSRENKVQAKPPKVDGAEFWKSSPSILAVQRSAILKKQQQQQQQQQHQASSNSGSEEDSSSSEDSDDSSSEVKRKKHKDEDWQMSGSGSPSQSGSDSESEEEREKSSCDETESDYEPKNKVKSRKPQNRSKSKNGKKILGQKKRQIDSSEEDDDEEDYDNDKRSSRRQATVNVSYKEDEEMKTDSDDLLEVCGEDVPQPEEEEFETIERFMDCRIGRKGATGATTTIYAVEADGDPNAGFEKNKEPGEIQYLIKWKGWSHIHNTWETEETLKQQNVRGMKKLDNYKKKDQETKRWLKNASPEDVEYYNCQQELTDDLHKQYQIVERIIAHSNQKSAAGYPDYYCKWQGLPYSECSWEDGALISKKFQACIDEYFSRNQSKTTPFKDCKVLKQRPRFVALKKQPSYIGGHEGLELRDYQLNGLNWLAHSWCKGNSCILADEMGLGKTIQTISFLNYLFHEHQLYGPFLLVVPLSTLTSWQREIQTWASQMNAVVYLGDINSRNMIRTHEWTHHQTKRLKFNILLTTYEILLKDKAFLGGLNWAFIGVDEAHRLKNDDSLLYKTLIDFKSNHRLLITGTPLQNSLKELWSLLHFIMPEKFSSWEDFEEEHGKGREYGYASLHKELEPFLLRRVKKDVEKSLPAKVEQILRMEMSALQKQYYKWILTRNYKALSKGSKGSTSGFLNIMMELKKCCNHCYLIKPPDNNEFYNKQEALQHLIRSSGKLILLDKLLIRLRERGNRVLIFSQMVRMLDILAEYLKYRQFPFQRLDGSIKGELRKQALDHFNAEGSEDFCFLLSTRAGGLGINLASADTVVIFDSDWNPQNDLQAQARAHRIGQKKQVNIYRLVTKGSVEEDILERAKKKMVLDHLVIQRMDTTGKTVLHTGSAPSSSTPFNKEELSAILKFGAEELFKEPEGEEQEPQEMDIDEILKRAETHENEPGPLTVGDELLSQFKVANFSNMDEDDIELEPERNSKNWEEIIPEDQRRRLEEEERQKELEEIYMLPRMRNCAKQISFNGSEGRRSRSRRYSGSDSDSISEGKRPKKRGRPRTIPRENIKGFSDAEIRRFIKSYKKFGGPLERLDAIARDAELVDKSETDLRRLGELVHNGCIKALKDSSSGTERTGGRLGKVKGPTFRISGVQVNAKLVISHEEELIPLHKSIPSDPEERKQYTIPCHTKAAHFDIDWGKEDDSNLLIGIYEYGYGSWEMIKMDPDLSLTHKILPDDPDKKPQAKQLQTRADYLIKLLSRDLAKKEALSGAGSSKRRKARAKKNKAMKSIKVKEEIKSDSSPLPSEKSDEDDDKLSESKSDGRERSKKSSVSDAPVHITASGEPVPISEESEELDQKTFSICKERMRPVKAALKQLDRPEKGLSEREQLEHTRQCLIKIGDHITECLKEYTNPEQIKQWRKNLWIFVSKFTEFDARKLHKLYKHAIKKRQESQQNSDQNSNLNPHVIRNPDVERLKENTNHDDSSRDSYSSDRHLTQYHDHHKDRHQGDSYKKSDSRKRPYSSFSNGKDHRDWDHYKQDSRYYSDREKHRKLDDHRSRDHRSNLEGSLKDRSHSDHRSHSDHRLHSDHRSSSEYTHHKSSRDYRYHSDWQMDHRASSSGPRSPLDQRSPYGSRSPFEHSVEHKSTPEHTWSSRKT
UniProt Q8IZL8: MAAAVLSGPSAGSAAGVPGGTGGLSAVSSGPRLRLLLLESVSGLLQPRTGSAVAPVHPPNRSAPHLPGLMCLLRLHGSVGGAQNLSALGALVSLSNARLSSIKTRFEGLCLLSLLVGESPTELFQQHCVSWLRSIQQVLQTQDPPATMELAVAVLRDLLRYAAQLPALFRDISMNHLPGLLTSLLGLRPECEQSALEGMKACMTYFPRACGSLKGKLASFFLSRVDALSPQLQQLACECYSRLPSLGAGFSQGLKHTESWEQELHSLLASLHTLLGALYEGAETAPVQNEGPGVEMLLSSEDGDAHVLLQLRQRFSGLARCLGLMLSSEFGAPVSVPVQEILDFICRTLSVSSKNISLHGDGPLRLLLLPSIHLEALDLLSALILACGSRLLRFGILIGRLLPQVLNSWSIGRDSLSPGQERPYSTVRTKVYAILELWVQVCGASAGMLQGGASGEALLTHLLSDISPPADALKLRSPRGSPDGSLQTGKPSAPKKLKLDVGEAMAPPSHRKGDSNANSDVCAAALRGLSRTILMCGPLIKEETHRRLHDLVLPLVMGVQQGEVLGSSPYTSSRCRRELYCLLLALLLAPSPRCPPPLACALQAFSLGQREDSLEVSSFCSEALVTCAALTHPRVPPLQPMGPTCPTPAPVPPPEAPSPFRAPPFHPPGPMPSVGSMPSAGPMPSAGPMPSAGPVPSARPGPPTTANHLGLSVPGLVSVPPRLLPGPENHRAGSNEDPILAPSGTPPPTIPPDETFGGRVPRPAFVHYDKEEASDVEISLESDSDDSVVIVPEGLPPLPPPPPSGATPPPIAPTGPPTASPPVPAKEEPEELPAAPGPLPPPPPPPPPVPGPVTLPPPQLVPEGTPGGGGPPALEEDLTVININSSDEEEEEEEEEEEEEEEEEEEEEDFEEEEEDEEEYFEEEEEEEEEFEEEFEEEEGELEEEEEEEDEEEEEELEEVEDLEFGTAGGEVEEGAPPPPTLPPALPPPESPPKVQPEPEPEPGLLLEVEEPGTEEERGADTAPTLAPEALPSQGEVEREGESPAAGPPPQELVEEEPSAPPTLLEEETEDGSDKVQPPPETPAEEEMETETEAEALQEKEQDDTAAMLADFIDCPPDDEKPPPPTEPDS
UniProt Q9Y4B6: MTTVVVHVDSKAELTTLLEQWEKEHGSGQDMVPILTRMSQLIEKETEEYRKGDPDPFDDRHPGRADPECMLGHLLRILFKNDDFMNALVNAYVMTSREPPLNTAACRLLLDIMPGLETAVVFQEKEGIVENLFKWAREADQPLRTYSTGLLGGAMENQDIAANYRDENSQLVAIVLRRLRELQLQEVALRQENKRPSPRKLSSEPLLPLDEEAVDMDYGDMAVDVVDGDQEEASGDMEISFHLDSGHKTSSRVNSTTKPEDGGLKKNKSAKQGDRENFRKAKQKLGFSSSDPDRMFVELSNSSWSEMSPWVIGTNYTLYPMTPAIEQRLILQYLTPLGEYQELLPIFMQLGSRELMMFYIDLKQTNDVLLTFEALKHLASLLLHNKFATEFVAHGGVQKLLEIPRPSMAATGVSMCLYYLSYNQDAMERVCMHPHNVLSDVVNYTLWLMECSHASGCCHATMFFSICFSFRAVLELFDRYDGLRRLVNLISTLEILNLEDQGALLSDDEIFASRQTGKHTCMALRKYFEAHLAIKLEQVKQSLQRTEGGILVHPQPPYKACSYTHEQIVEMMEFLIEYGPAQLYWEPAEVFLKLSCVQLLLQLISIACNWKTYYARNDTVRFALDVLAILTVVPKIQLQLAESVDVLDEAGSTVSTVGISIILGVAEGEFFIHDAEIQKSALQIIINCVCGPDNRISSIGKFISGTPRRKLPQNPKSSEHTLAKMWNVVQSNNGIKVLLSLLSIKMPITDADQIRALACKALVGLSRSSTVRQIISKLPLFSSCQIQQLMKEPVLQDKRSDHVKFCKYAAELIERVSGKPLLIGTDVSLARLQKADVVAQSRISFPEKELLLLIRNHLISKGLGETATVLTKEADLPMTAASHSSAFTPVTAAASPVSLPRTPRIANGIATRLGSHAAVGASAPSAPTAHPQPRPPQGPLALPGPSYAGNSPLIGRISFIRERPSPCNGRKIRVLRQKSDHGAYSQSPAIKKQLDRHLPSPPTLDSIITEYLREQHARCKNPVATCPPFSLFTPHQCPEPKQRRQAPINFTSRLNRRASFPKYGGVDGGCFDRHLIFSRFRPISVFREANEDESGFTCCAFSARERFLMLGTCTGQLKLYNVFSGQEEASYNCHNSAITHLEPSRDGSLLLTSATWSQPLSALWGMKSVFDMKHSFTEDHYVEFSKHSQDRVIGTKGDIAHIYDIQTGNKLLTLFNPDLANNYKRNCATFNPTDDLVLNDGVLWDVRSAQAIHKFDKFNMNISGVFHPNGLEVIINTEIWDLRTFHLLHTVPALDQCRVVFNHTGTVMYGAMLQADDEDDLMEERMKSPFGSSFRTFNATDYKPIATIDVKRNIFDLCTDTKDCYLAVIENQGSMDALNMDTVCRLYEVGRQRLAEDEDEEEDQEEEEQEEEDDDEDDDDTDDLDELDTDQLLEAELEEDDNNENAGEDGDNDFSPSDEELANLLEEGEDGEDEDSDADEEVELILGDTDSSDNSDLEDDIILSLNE

B1: TAT-SF1 (endogenous) (protein, UniProt O43719 1-755)
chain: MSGTNLDGNDEFDEQLRMQELYGDGKDGDTQTDAGGEPDSLGQQPTDTPYEWDLDKKAWFPKITEDFIATYQANYGFSNDGASSSTANVEDVHARTAEEPPQEKAPEPTDARKKGEKRKAESGWFHVEEDRNTNVYVSGLPPDITVDEFIQLMSKFGIIMRDPQTEEFKVKLYKDNQGNLKGDGLCCYLKRESVELALKLLDEDEIRGYKLHVEVAKFQLKGEYDASKKKKKCKDYKKKLSMQQKQLDWRPERRAGPSRMRHERVVIIKNMFHPMDFEDDPLVLNEIREDLRVECSKFGQIRKLLLFDRHPDGVASVSFRDPEEADYCIQTLDGRWFGGRQITAQAWDGTTDYQVEETSREREERLRGWEAFLNAPEANRGLRRSDSVSASERAGPSRARHFSEHPSTSKMNAQETATGMAFEEPIDEKKFEKTEDGGEFEEGASENNAKESSPEKEAEEGCPEKESEEGCPKRGFEGSCSQKESEEGNPVRGSEEDSPKKESKKKTLKNDCEENGLAKESEDDLNKESEEEVGPTKESEEDDSEKESDEDCSEKQSEDGSEREFEENGLEKDLDEEGSEKELHENVLDKELEENDSENSEFEDDGSEKVLDEEGSEREFDEDSDEKEEEEDTYEKVFDDESDEKEDEEYADEKGLEAADKKAEEGDADEKLFEESDDKEDEDADGKEVEDADEKLFEDDDSNEKLFDEEEDSSEKLFDDSDERGTLGGFGSVEEGPLSTGSSFILSSDDDDDDI
B2: AMOTL1 (endogenous) (protein, UniProt Q8IY63 1-956)
chain: MWRAKLRRGTCEPAVKGSPSACYSPSSPVQVLEDSTYFSPDFQLYSGRHETSALTVEATSSIREKVVEDPLCNFHSPNFLRISEVEMRGSEDAAAGTVLQRLIQEQLRYGTPTENMNLLAIQHQATGSAGPAHPTNNFSSTENLTQEDPQMVYQSARQEPQGQEHQVDNTVMEKQVRSTQPQQNNEELPTYEEAKAQSQFFRGQQQQQQQQGAVGHGYYMAGGTSQKSRTEGRPTVNRANSGQAHKDEALKELKQGHVRSLSERIMQLSLERNGAKQHLPGSGNGKGFKVGGGPSPAQPAGKVLDPRGPPPEYPFKTKQMMSPVSKTQEHGLFYGDQHPGMLHEMVKPYPAPQPVRTDVAVLRYQPPPEYGVTSRPCQLPFPSTMQQHSPMSSQTSSASGPLHSVSLPLPLPMALGAPQPPPAASPSQQLGPDAFAIVERAQQMVEILTEENRVLHQELQGYYDNADKLHKFEKELQRISEAYESLVKSTTKRESLDKAMRNKLEGEIRRLHDFNRDLRDRLETANRQLSSREYEGHEDKAAEGHYASQNKEFLKEKEKLEMELAAVRTASEDHRRHIEILDQALSNAQARVIKLEEELREKQAYVEKVEKLQQALTQLQSACEKREQMERRLRTWLERELDALRTQQKHGNGQPANMPEYNAPALLELVREKEERILALEADMTKWEQKYLEESTIRHFAMNAAATAAAERDTTIINHSRNGSYGESSLEAHIWQEEEEVVQANRRCQDMEYTIKNLHAKIIEKDAMIKVLQQRSRKDAGKTDSSSLRPARSVPSIAAATGTHSRQTSLTSSQLAEEKKEEKTWKGSIGLLLGKEHHEHASAPLLPPPPTSALSSIASTTAASSAHAKTGSKDSSTQTDKSAELFWPSMASLPSRGRLSTTPAHSPVLKHPAAKGTAEKLENSPGHGKSPDHRGRVSSLLHKPEFPDGEMMEVLI

Target: TAP6-Merlin (UniProt P35240)
Test: affinity purification with mass spectrometry

| Molecule | binding |
| --- | --- |
| CHD1 (endogenous) (from UniProt O14646 1-1710) | binds |
| PELP1 (endogenous) (from UniProt Q8IZL8 1-1130) | binds |
| VPRBP/DCAF1 (endogenous) (from UniProt Q9Y4B6 1-1507) | binds |
| B1 | binds |
| B2 | binds |

These are yes or no findings as the source states them, for the method shown. Binding seen in cells or lysates may run through a third protein. A yes stands for co-enrichment or nearness to the bait. Other partners may have been found.
